# Measurements taken from paper PMC8347620, “Arabidopsis G-Protein β Subunit AGB1 Negatively Regulates DNA Binding of MYB62, a Suppressor in the Gibberellin Pathway”.
# The exact form of at least one protein or probe is not confirmed. A weaker result is weaker than the reference pair of the same experiment. Tags and fusion partners may be left off the protein sequences shown.
# Molecular target: T1, MBP-MYB62 (UniProt Q9C9G7)
# T1 sequence (looked up, limits assumed): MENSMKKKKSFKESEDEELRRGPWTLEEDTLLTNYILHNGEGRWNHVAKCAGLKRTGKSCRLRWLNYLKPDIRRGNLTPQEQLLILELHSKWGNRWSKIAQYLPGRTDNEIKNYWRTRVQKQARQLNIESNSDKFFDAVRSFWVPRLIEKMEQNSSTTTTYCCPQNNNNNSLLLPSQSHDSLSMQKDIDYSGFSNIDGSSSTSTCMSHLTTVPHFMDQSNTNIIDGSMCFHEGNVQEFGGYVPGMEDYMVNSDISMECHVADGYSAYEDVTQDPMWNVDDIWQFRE
# Assay: EMSA
# Details: GST-AGB1 added (reduces MYB62 binding); EMSA: 2.5% glycerol, 50 mM KCl, 5 mM MgCl2, 10 mM EDTA, 30 min, room temperature; pH not stated; recombinant protein; protein details: MBP (pMAL-c2x)
sequence,measurement,value
AAGCCCTTGGTTGGGGATGG (double strand) [ProGA2ox7 probe (MYB element)],binding result,binds more weakly
